The nature of this data set: general procedure: solution-phase peptide synthesis; DCC/HOBt. The settings on record: coupling step, acetate.

We go through 1 substance from patent US5719128A (Akzo Nobel N.V., priority 1991, dated 1998).

In turn, “Z-Arg(Z)2 -psi[CO--CH2 ]-Gly-phe-Lys(Boc)OtBu” yielded a step yield of 85%.
